Laboratory results reported in patent US20190024185A1.
Results are given in words; binding and its absence hold for the method and conditions named. In cells and extracts the contact can be indirect. Some results given as binding are weak or reduced against the parent protein; the word gives no strength.

Protein sequences, listed by entry. Tags and fused reporters are not part of them.
UniProt P10275: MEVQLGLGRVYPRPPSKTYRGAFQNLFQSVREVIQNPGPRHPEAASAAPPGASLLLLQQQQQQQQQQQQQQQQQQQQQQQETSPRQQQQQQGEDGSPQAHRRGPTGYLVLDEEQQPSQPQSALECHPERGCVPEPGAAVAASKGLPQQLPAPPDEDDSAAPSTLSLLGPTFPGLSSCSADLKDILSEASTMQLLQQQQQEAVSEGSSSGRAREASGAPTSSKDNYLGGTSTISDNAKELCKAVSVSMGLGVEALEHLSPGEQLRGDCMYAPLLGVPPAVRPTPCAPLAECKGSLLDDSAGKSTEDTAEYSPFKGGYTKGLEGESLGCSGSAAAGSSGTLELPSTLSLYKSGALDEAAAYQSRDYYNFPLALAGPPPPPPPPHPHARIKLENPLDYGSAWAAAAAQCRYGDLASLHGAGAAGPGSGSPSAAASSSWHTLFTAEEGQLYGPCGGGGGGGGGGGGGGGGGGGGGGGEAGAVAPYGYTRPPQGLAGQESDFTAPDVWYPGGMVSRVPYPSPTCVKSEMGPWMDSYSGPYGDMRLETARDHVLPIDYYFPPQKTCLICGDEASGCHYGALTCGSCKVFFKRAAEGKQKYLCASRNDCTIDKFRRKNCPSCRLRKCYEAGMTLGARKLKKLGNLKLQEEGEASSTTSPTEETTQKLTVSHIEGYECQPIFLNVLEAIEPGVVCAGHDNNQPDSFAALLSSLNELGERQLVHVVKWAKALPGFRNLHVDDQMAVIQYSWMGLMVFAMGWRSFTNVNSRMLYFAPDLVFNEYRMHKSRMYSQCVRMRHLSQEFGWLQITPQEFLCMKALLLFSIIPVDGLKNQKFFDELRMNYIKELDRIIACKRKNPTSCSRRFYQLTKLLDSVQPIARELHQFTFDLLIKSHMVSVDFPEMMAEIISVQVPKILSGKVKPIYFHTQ

Legend:
androgen receptor (AR) [1] = target: androgen receptor (AR) (UniProt P10275); assay: co-immunoprecipitation of endogenous nuclear proteins from LNCaP cells, Western blot
androgen receptor (AR) [2] = target: androgen receptor (AR) (UniProt P10275); assay: co-immunoprecipitation from nuclear fraction, Western blot (FIG. 10, part B: endogenous, LNCaP)

binding (androgen receptor (AR) [1]): binds
binding (androgen receptor (AR) [2]): binds
Substance: KDM5D (endogenous, in LNCaP cells) (from UniProt Q9BY66 1-1539) (enzyme)
